# Values from PubChem BioAssay AID1508597 (Cure First, 2020).
# Test: 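Survival screen with siRNA in ovarian cancer cells derived from patients, with or without rucaparib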 (primary screen)
# Cell system: human ovarian carcinoma lines grown from tumours: OCI-P5x (papillary serous) and OCI-C5x (clear cell)
# Reagents: siRNA pool against human genes, 1.25 pmol siRNA per well
# Time to read-out: 72 h or 96 h, depending on the cell culture
# Conditions: rucaparib 20 µM (about IC30) or vehicle, present until read-out
# Rucaparib or vehicle: Rucaparib
# Cell line: OCI-P5x (serous)
# Measured: 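Luminescent ATP-based viability assay read 72 or 96 h after transfection, depending on culture, given as normalised percent viability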
# Scale: viability, normalised: higher = more viable cells remaining
# Hit rule: 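a well counts as a hit if its normalised viability is under 80 percent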
# Meaning of the calls: active = viability under 80%; inactive = viability 80% or more
# Shown is a random part of the about 2,100 reagents, under one of the conditions tested. 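Calls flag viability under 80% in either arm, not effects specific to rucaparib; the reference for percent is not stated.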 Entries without a mark were called inactive. Some reagents were tested in more than one well and are listed for each. Not stated in the record: the 100% reference.
gene,technical replicate,"viability, normalised (%)"
KAT5,1,51.3 (active)
KAT5,2,52.9 (active)
KAT5,3,53.7 (active)
CELF1,1,57.1 (active)
CELF1,2,55.3 (active)
CELF1,3,55.1 (active)
PRMT8,1,45.1 (active)
PRMT8,2,50.7 (active)
PRMT8,3,53.6 (active)
SPTB,1,67.5 (active)
SPTB,2,66.1 (active)
SPTB,3,72.9 (active)
PELP1,1,74 (active)
PELP1,2,73.4 (active)
PELP1,3,67.6 (active)
HDAC9,1,66.7 (active)
HDAC9,2,68.5 (active)
HDAC9,3,63.3 (active)
NAGK,1,98.7
NAGK,2,89.5
NAGK,3,84.2
PRMT1,1,48.7 (active)
PRMT1,2,42.5 (active)
PRMT1,3,48.7 (active)
STK17A,1,71.3 (active)
STK17A,2,78.6 (active)
STK17A,3,75.4 (active)

9 consecutive records from above, quoted:
gene,technical replicate,"viability, normalised (%)"
SPTB,2,66.1 (active)
SPTB,3,72.9 (active)
PELP1,1,74 (active)
PELP1,2,73.4 (active)
PELP1,3,67.6 (active)
HDAC9,1,66.7 (active)
HDAC9,2,68.5 (active)
HDAC9,3,63.3 (active)
NAGK,1,98.7

More entries follow:
gene,technical replicate,"viability, normalised (%)"
PHKA2,1,102
PHKA2,2,64 (active)
PHKA2,3,85.9
CLK2,1,103
CLK2,1,95.9
CLK2,2,117
CLK2,2,104
CLK2,3,78.6 (active)
CLK2,3,87.4
MED24,1,57.4 (active)
MED24,2,59.5 (active)
MED24,3,58 (active)
DDX20,1,67.9 (active)
DDX20,2,90.1
DDX20,3,67.6 (active)
DDX43,1,58 (active)
DDX43,2,75.6 (active)
DDX43,3,78 (active)
PKMYT1,1,102
PKMYT1,2,95.4
PKMYT1,3,101
DDX4,1,64.5 (active)
DDX4,2,64.8 (active)
DDX4,3,62.7 (active)
KDM8,1,67.7 (active)
KDM8,2,79.4 (active)
KDM8,3,83.6
PAPSS2,1,141
PAPSS2,2,145
PAPSS2,3,102
